For the test, the target named is T1, Rv2911-V5 (Mycobacterium tuberculosis) (UniProt I6Y204).
T1 sequence: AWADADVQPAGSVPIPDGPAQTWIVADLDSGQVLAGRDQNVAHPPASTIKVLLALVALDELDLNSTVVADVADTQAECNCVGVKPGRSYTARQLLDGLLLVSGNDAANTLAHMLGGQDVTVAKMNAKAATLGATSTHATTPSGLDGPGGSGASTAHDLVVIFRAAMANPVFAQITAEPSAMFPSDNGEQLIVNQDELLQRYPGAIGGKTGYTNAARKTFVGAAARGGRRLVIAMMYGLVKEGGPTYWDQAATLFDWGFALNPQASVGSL
Put plainly: co-IP.

No constants are given. Whether binding was seen depends on the method and setting. Binding seen in cells or lysates may run through a third protein. A result given as binding can be weak or reduced; the word gives no strength. Where a sequence is shown, tags or fusion partners need not be part of it.

As for “myc-UBQLN1-ΔUBA (human) (domain or fragment)”, the binding entry is “binds”.

(Values after publication PMC4520715.)
